Sequences of proteins named here, by UniProt entry; tags and fusion partners are left off. A change or cut given only in a name is not applied to a line headed by its entry.
UniProt Q9BZI7: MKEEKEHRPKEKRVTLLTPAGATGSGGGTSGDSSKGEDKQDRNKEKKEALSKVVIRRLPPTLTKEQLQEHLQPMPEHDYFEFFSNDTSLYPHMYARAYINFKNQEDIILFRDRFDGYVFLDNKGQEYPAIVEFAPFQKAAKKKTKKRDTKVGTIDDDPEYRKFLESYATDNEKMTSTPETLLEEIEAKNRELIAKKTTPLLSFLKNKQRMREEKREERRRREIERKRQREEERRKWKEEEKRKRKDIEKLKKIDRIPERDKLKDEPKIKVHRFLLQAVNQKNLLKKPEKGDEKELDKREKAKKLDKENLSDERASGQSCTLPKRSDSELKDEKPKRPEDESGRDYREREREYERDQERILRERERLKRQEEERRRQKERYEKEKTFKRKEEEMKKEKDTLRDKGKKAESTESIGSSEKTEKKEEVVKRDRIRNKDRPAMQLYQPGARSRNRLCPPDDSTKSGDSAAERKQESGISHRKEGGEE
UniProt Q96N66: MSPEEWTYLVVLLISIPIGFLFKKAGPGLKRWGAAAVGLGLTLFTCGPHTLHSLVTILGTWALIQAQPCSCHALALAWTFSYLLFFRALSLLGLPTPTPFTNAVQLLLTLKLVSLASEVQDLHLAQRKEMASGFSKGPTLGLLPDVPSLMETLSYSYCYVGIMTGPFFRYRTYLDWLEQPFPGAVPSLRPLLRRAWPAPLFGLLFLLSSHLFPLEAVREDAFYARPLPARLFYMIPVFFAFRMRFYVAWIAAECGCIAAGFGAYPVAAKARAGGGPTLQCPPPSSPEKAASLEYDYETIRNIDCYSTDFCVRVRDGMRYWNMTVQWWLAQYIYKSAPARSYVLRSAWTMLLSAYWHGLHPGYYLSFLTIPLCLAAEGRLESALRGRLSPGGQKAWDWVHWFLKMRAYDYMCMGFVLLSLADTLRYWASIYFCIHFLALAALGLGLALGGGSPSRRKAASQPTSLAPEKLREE
UniProt Q9NP97, whole entry: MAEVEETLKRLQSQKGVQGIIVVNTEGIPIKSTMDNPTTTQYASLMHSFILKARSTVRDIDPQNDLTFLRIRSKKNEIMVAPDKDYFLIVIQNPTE
UniProt Q9BZK7: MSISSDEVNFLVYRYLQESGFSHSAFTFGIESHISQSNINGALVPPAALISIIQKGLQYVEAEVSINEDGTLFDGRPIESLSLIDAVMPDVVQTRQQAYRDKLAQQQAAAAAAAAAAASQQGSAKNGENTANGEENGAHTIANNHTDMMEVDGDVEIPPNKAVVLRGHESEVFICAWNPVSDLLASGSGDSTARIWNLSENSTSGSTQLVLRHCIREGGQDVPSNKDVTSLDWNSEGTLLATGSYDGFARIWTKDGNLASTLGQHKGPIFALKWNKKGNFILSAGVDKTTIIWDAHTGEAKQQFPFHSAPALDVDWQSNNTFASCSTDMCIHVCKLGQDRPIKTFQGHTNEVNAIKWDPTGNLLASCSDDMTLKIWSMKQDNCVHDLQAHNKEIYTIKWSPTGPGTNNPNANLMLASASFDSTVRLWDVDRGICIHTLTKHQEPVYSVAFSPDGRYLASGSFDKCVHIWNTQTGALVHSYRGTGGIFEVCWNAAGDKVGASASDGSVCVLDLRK
UniProt Q12905: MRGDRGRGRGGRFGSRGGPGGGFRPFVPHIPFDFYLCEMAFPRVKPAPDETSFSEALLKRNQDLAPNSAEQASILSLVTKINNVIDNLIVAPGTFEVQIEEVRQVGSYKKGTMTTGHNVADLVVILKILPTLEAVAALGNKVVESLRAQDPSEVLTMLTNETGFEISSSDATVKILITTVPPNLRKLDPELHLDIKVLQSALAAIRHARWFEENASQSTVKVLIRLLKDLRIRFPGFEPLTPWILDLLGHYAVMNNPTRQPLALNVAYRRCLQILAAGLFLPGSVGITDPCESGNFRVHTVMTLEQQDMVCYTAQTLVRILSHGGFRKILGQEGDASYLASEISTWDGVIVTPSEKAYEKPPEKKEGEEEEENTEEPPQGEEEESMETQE
UniProt P78417: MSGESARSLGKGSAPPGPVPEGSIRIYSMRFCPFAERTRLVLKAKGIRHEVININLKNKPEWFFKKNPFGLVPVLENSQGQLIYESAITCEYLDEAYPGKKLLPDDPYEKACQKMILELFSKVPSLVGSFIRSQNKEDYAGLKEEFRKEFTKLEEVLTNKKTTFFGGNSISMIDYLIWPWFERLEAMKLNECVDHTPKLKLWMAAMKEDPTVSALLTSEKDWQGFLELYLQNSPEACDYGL
UniProt P0DJ07: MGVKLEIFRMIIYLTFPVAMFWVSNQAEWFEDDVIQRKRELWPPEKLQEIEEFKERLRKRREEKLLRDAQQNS
UniProt Q9Y5Z9: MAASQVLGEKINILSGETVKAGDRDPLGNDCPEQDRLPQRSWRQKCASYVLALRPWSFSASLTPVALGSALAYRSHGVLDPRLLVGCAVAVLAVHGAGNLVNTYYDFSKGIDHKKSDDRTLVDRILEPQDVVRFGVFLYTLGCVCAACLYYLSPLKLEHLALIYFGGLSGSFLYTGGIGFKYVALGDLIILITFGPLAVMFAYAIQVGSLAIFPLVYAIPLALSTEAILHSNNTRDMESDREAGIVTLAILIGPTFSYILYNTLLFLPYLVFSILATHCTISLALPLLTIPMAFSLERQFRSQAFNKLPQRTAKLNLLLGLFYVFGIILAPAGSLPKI
UniProt Q8IXM6: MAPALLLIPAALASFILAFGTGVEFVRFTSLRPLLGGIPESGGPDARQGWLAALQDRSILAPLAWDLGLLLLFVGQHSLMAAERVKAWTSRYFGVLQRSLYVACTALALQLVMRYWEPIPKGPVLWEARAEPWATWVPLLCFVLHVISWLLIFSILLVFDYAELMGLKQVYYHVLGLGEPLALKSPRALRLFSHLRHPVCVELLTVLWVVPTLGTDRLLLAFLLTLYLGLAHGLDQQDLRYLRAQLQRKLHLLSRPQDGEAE
UniProt P59190: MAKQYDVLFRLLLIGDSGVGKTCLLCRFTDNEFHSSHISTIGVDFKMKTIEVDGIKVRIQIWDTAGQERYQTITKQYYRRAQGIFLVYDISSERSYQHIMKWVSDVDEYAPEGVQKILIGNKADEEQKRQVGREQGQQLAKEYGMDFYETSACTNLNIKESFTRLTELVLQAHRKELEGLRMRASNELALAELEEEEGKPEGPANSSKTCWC
UniProt Q92620: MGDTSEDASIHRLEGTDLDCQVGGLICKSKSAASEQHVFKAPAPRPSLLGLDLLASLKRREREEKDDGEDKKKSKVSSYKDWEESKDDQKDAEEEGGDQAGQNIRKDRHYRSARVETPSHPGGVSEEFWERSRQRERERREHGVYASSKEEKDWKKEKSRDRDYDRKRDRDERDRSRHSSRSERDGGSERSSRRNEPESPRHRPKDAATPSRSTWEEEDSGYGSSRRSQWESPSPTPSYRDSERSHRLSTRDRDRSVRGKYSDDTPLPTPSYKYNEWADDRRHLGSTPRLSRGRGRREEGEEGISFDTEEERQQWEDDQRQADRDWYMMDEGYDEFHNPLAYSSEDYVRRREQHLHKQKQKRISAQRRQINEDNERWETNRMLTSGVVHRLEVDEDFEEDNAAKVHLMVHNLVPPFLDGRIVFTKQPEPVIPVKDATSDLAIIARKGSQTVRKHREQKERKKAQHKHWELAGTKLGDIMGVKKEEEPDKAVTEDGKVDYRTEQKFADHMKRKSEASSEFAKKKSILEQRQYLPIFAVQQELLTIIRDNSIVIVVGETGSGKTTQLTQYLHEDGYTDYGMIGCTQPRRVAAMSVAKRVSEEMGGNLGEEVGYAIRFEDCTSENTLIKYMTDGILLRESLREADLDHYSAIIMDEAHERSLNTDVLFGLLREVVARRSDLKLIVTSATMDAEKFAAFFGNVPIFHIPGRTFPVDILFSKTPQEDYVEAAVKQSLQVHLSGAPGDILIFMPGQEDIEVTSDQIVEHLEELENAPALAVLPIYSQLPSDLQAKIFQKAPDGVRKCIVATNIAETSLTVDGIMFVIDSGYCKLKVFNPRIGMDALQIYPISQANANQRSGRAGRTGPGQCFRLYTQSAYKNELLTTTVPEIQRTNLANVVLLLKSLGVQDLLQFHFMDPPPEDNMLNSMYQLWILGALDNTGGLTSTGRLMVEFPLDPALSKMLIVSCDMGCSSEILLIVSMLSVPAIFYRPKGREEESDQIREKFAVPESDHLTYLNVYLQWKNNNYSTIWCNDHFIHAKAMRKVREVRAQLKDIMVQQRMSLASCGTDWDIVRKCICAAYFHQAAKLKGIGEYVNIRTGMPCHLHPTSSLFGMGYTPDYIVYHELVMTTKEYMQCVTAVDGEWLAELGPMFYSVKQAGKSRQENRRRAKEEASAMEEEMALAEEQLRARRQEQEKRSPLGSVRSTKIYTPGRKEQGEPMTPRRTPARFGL
UniProt Q7Z2W4: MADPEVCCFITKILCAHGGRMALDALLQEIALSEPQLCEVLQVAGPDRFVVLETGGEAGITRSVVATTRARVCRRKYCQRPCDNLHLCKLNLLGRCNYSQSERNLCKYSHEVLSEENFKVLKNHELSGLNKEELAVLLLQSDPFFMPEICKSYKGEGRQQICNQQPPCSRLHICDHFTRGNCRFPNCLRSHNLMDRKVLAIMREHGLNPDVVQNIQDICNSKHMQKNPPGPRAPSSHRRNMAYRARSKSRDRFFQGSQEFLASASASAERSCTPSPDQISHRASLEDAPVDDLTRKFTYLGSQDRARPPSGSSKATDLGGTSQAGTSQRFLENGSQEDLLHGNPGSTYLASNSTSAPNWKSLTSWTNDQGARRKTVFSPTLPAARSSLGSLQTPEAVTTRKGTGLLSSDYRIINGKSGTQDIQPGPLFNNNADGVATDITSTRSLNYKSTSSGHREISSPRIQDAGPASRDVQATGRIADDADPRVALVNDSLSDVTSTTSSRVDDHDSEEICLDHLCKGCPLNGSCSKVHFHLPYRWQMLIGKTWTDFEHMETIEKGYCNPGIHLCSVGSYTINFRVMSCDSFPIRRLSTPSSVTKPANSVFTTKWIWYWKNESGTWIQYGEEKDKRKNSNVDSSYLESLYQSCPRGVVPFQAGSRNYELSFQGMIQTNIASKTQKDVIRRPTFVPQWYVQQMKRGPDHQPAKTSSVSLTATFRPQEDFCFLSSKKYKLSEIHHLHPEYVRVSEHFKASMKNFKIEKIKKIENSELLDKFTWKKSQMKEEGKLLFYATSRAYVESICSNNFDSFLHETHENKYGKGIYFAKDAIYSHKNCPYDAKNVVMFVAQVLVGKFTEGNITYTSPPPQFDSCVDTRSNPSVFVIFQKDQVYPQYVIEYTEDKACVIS
UniProt Q5EB52: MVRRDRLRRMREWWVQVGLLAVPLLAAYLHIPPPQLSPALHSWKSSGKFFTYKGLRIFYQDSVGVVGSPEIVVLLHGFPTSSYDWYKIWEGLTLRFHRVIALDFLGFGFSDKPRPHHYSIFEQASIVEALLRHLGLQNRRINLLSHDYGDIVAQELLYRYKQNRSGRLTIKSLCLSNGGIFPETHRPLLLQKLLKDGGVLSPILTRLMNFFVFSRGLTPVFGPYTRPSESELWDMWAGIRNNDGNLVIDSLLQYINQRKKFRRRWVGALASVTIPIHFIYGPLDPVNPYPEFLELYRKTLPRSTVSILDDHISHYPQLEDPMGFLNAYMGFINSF
UniProt Q9BXI6: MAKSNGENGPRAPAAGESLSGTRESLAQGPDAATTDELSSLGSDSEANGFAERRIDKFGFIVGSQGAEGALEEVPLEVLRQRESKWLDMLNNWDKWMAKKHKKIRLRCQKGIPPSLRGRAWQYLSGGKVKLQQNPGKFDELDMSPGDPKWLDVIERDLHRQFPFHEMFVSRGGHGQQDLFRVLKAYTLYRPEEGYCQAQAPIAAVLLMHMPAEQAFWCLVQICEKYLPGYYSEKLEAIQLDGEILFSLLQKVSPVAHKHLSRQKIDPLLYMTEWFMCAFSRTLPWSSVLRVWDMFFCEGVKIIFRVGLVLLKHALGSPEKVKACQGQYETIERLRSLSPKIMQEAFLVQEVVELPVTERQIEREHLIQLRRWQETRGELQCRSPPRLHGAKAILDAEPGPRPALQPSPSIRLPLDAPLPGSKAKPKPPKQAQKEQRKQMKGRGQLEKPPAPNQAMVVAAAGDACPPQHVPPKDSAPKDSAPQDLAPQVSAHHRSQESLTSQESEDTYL
UniProt Q96DX5: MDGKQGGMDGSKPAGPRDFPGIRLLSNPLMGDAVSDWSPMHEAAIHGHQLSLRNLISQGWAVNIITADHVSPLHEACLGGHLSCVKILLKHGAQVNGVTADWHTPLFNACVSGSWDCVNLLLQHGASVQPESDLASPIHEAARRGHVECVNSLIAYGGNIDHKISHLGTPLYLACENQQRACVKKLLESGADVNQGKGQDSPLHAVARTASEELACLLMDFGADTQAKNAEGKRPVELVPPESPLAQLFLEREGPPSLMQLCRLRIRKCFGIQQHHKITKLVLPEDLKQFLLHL

According to the supplement of paper PMC10060354, “Discovery of a small molecule ligand of FRS2 that inhibits invasion and tumor growth” (Cellular Oncology, 2022):

Compound: [O-][N+](C(C1=C(C(O)=C2)NC(C(C=C3)=CC=C3Cl)C4C1C=CC4)=C2Cl)=O
Test: melting temperature shift (compound 7 minus DMSO); higher = compound stabilises the protein
Details: 10 µM
Procedure: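 Thermal proteome profiling (TMT mass spectrometry) in intact DAOY medulloblastoma cells or DAOY lysates treated with 10 µM compound 7 or DMSO, heated at 10 temperatures from 40.5 to 73.8 °C for 3 min. Melting curves were fitted with the Bioconductor TPP package, and the melting point difference between compound and vehicle is reported per protein (single curve per condition).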

[1] = system: DAOY cell lysate, treatment time: 20 min, 4 °C
[2] = system: intact DAOY cells, treatment time: 90 min, 37 °C

For UniProt P56385, the melting temperature shift [1] was 0.362 °C and the melting temperature shift [2] was -1.79 °C.

UniProt Q8N5G0 was tested, and the melting temperature shift [1] was 2.1 °C.

With A0A1B0GUS4, A0A1B0GUS4 the melting temperature shift [2] was -0.425 °C.

With LTV1 (UniProt Q96GA3) the melting temperature shift [1] was 0.664 °C and the melting temperature shift [2] was 0.953 °C.

With UniProt Q5T011 the melting temperature shift [1] was -1.32 °C.

For GPAA1 (UniProt O43292), the melting temperature shift [1] was 0.689 °C and the melting temperature shift [2] was -1.09 °C.

Target ACAT1 (UniProt P24752) has a melting temperature shift [1] of 0.801 °C and a melting temperature shift [2] of -0.511 °C.

For UniProt Q96A08, the melting temperature shift [1] was -0.107 °C and the melting temperature shift [2] was -1.67 °C.

In the case of UniProt P51513, the melting temperature shift [2] is reported as -0.99 °C.

For RNMT (UniProt O43148), the melting temperature shift [1] was -0.407 °C and the melting temperature shift [2] was -0.0448 °C.

Target NUBPL (UniProt Q8TB37) has a melting temperature shift [2] of -2.27 °C.

UPF3B (UniProt Q9BZI7) was tested, and the melting temperature shift [1] was -0.224 °C and the melting temperature shift [2] was 0.338 °C.

In the case of ETHE1 (UniProt O95571), the melting temperature shift [1] is reported as -0.0939 °C and the melting temperature shift [2] is reported as 1.6 °C.

Target MBOAT7 (UniProt Q96N66) has a melting temperature shift [1] of -0.778 °C and a melting temperature shift [2] of -5.25 °C.

For DYNLRB1 (UniProt Q9NP97), the melting temperature shift [1] was 0.544 °C and the melting temperature shift [2] was -0.628 °C.

For TBL1XR1 (UniProt Q9BZK7), the melting temperature shift [1] was -1.04 °C and the melting temperature shift [2] was 0.911 °C.

In the case of RIC8B (UniProt Q9NVN3), the melting temperature shift [1] is reported as -1.96 °C and the melting temperature shift [2] is reported as -0.923 °C.

RECQL (UniProt P46063) showed a melting temperature shift [1] of -0.413 °C and a melting temperature shift [2] of 1.6 °C.

In the case of UniProt P49703, the melting temperature shift [2] is reported as 0.19 °C.

In the case of UniProt Q6KB66, the melting temperature shift [1] is reported as -0.0778 °C and the melting temperature shift [2] is reported as 8.84 °C.

Work on ILF2 (UniProt Q12905) yielded a melting temperature shift [1] of -0.199 °C and a melting temperature shift [2] of -0.343 °C.

Work on TCOF1 (UniProt Q13428) yielded a melting temperature shift [1] of -0.13 °C.

GSTO1 (UniProt P78417) was tested, and the melting temperature shift [1] was -0.519 °C and the melting temperature shift [2] was 1.96 °C.

Work on UniProt P0DJ07 yielded a melting temperature shift [1] of 2.04 °C.

Work on UniProt Q5T0B9 yielded a melting temperature shift [2] of -1.02 °C.

With UniProt O95154 the melting temperature shift [2] was -0.125 °C.

With NUP210 (UniProt Q8TEM1) the melting temperature shift [1] was 0.947 °C and the melting temperature shift [2] was -0.00416 °C.

With MRPL43 (UniProt Q8N983) the melting temperature shift [1] was 0.789 °C and the melting temperature shift [2] was -0.966 °C.

UniProt P53803 showed a melting temperature shift [1] of 2.21 °C and a melting temperature shift [2] of 0.141 °C.

TBL1X (UniProt O60907) gave a melting temperature shift [1] of -1.16 °C and a melting temperature shift [2] of 1.44 °C.

UniProt Q8N6G5 gave a melting temperature shift [2] of -1.59 °C.

Work on PACS1 (UniProt Q6VY07) yielded a melting temperature shift [1] of -0.787 °C and a melting temperature shift [2] of 0.687 °C.

In the case of CBX5 (UniProt P45973), the melting temperature shift [1] is reported as 0.823 °C and the melting temperature shift [2] is reported as 0.877 °C.

Work on SPECC1L (UniProt Q69YQ0) yielded a melting temperature shift [1] of 0.603 °C and a melting temperature shift [2] of 0.979 °C.

With A0A2R8Y619, A0A2R8Y619 the melting temperature shift [2] was -0.362 °C.

In the case of NAA25 (UniProt Q14CX7), the melting temperature shift [1] is reported as -0.262 °C and the melting temperature shift [2] is reported as -0.919 °C.

MATR3 (UniProt P43243) was tested, and the melting temperature shift [1] was 0.817 °C and the melting temperature shift [2] was 0.369 °C.

UniProt Q9HD47 showed a melting temperature shift [1] of 3.94 °C.

For CHD1 (UniProt O14646), the melting temperature shift [1] was -0.958 °C.

Target ANXA11 (UniProt P50995) has a melting temperature shift [1] of -0.49 °C and a melting temperature shift [2] of 0.487 °C.

Target UBIAD1 (UniProt Q9Y5Z9) has a melting temperature shift [2] of -0.261 °C.

In the case of HACD3 (UniProt Q9P035), the melting temperature shift [1] is reported as 0.996 °C and the melting temperature shift [2] is reported as -0.845 °C.

UniProt Q9BTM9 showed a melting temperature shift [1] of 1.31 °C and a melting temperature shift [2] of -1.6 °C.

COPS2 (UniProt P61201) was tested, and the melting temperature shift [1] was -0.558 °C and the melting temperature shift [2] was 0.225 °C.

Work on HIST1H4A (UniProt P62805) yielded a melting temperature shift [2] of 0.108 °C.

UniProt Q8IXM6 gave a melting temperature shift [1] of -0.455 °C.

PTRH2 (UniProt Q9Y3E5) gave a melting temperature shift [1] of 1.66 °C and a melting temperature shift [2] of -0.308 °C.

For EMG1 (UniProt Q92979), the melting temperature shift [1] was -0.0779 °C and the melting temperature shift [2] was 0.44 °C.

UniProt P59190 showed a melting temperature shift [2] of -1.68 °C.

In the case of NUP153 (UniProt P49790), the melting temperature shift [1] is reported as 0.188 °C and the melting temperature shift [2] is reported as -0.611 °C.

Work on AMMECR1 (UniProt Q9Y4X0) yielded a melting temperature shift [2] of -0.421 °C.

Work on UniProt Q5JXB2 yielded a melting temperature shift [2] of -0.379 °C.

MGAT2 (UniProt Q10469) gave a melting temperature shift [1] of 1.46 °C and a melting temperature shift [2] of -1.77 °C.

Work on BCL7C (UniProt Q8WUZ0) yielded a melting temperature shift [2] of 1.17 °C.

With CAMK2G (UniProt Q13555) the melting temperature shift [1] was 0.855 °C and the melting temperature shift [2] was -1.9 °C.

PHF23 (UniProt Q9BUL5) showed a melting temperature shift [1] of 2.14 °C and a melting temperature shift [2] of 0.229 °C.

For UniProt Q9C002, the melting temperature shift [1] was 3.15 °C and the melting temperature shift [2] was -1.67 °C.

IRGQ (UniProt Q8WZA9) showed a melting temperature shift [1] of -0.505 °C and a melting temperature shift [2] of 0.0211 °C.

In the case of UniProt Q99569, the melting temperature shift [1] is reported as 0.851 °C.

For GRAMD3 (UniProt Q96HH9), the melting temperature shift [2] was -1.43 °C.

For FAM118B (UniProt Q9BPY3), the melting temperature shift [1] was 0.557 °C and the melting temperature shift [2] was 2.34 °C.

Work on USP5 (UniProt P45974) yielded a melting temperature shift [1] of -0.351 °C and a melting temperature shift [2] of -0.263 °C.

STRN (UniProt O43815) gave a melting temperature shift [1] of -0.624 °C and a melting temperature shift [2] of 0.303 °C.

PARP12 (UniProt Q9H0J9) gave a melting temperature shift [1] of -2.26 °C.

Work on UniProt Q8N612 yielded a melting temperature shift [1] of 1.41 °C.

Target CUTA (UniProt O60888) has a melting temperature shift [1] of 0.24 °C.

With DHX38 (UniProt Q92620) the melting temperature shift [1] was -0.0805 °C and the melting temperature shift [2] was -0.144 °C.

Target ZC3HAV1 (UniProt Q7Z2W4) has a melting temperature shift [1] of 0.2 °C and a melting temperature shift [2] of 0.42 °C.

Work on UniProt Q8NB25 yielded a melting temperature shift [2] of 0.0277 °C.

Target TPR (UniProt P12270) has a melting temperature shift [1] of 0.00221 °C and a melting temperature shift [2] of 2.01 °C.

In the case of RER1 (UniProt O15258), the melting temperature shift [1] is reported as 1.13 °C.

In the case of NDUFAF1 (UniProt Q9Y375), the melting temperature shift [1] is reported as 1.68 °C and the melting temperature shift [2] is reported as 3.76 °C.

THBS1 (UniProt P07996) showed a melting temperature shift [1] of 0.466 °C and a melting temperature shift [2] of -0.178 °C.

UniProt Q5EB52 showed a melting temperature shift [1] of 0.527 °C and a melting temperature shift [2] of -0.0988 °C.

In the case of RRAS (UniProt P10301), the melting temperature shift [1] is reported as 1.48 °C and the melting temperature shift [2] is reported as -0.454 °C.

In the case of TBC1D10A (UniProt Q9BXI6), the melting temperature shift [1] is reported as -0.695 °C and the melting temperature shift [2] is reported as -1.77 °C.

IRF3 (UniProt Q14653) gave a melting temperature shift [1] of -0.253 °C and a melting temperature shift [2] of -0.00612 °C.

WBSCR16 (UniProt Q96I51) showed a melting temperature shift [1] of 0.458 °C and a melting temperature shift [2] of -0.555 °C.

For ALG11 (UniProt Q2TAA5), the melting temperature shift [2] was -1.08 °C.

With KIF2C (UniProt Q99661) the melting temperature shift [1] was -1.4 °C and the melting temperature shift [2] was -0.00835 °C.

H1F0 (UniProt P07305) gave a melting temperature shift [2] of -0.757 °C.

For TLN2 (UniProt Q9Y4G6), the melting temperature shift [1] was -0.418 °C and the melting temperature shift [2] was -0.165 °C.

With TMEM115 (UniProt Q12893) the melting temperature shift [1] was -0.453 °C and the melting temperature shift [2] was -3.04 °C.

Work on DDX24 (UniProt Q9GZR7) yielded a melting temperature shift [1] of 0.892 °C and a melting temperature shift [2] of 2.84 °C.

For SCD (UniProt O00767), the melting temperature shift [1] was 1.54 °C and the melting temperature shift [2] was 0.0429 °C.

ASB9 (UniProt Q96DX5) was tested, and the melting temperature shift [1] was 0.612 °C.

Work on SHKBP1 (UniProt Q8TBC3) yielded a melting temperature shift [1] of 1.36 °C.

Work on COX20 (UniProt Q5RI15) yielded a melting temperature shift [1] of 4.89 °C.

For CPD (UniProt O75976), the melting temperature shift [1] was 0.489 °C and the melting temperature shift [2] was 1.97 °C.

For MTDH (UniProt Q86UE4), the melting temperature shift [1] was 2.75 °C.

With UniProt Q96BZ9 the melting temperature shift [1] was -0.0922 °C.

MNAT1 (UniProt P51948) gave a melting temperature shift [1] of -0.648 °C and a melting temperature shift [2] of -0.437 °C.

In the case of IVNS1ABP (UniProt Q9Y6Y0), the melting temperature shift [1] is reported as 0.84 °C and the melting temperature shift [2] is reported as 4.03 °C.

Repeats are few or missing, and single values can be far off.
